# Values quoted from earlier work in patent US10953003B2, “Methods for treating cancer” (X4 Pharmaceuticals, Inc., priority 2015, dated 2021).
# For at least one compound, name, drawing or mass did not settle the structure.
# Test system: renal cell carcinoma (RCC) xenografts
# Conditions: earlier work by some of the inventors; MI-319 given concurrently with sunitinib; cited from earlier work
compound,measurement,value
CCN(CC)CCNC(=O)c1c(C)[nH]c(/C=C2\C(=O)Nc3ccc(F)cc32)c1C [sunitinib],infiltration of RCC xenografts with CD11b+/Gr-1+ MDSC,marked increase
